# From PubChem BioAssay AID328 (DTP/NCI, 2004)
# The list does not hold the whole screen: it is rich in T/C values a quarter to a half above the control, in often repeated tests (any T/C) and in doses without a T/C. Further doses and runs are listed elsewhere. T/C is the treated group as % of the vehicle group. Some entries give survivors of the animals treated and no T/C: the source files T/C as zero there, which appears to mark a toxic dose or a test without result, not a measured value. Some survivor counts are full or nearly so, which does not show that the dose was tolerated: survival well below the control is almost never listed, so the zero probably covers shortened survival too. Counts of survivors are from the toxicity check (mostly the fifth day) where no day follows; animals may have died later. Schedules are NCI's codes, read here as Q, the interval in days (D) or hours (H), X, the number of doses. Additions like (4×) say how often a value occurs here. Some entries hold several experiments; their values stand side by side, smallest first. Where survival is the endpoint, this PubChem deposit counts one and a half times the control or more as active, and values a quarter to a half above the control carry no call in these data; other NCI protocols may use other cut-offs. Some T/C values carry the count of animals alive at the toxicity check (mostly the fifth day); where none is given, no animal had died by that day.
# Test system: BDF1 mice, P388 leukemia ip, median survival T/C
# Test: NCI In Vivo Anticancer Drug Screen. Data for tumor model P388 Leukemia (intraperitoneal) in B6D2F1 (BDF1) mice
# Details: T/C endpoint: median survival time, higher T/C = longer survival
# Summary of the method: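 Transplantable tumour in mice; compound vs vehicle dosing; survival scored; ratio of treated to control reported.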
# [1] = dose: 200.0 mg/kg/injection, schedule: Q01DX009 (ip), vehicle: Klucel (hydroxypropylcellulose) (HPC)
# [2] = dose: 400.0 mg/kg/injection, schedule: Q01DX009 (ip), vehicle: Klucel (hydroxypropylcellulose) (HPC)
smiles,measurement,setting,value
O=c1cnn(C2OC(CO)C(O)C2O)c(=O)[nH]1 (centres undefined),survivor count,"dose: 200.0 mg/kg/injection, schedule: Q01DX001 (ip), vehicle: Klucel (hydroxypropylcellulose) (HPC)",3 of 3
same,T/C,"dose: 200.0 mg/kg/injection, schedule: Q01DX005 (ip), vehicle: Klucel (hydroxypropylcellulose) (HPC), evaluated on day 30","91, 92, 96, 98, 100 (2×), 104, 105 (2×), 106 (5×), 108, 108 [5 of 6 alive], 111, 112, 114, 115, 115 [5 of 6 alive], 116 (2×), 117 (2×), 121 (2×), 122 (2×), 123, 124, 128, 132 % of control"
same,T/C,"dose: 200.0 mg/kg/injection, schedule: Q01DX005 (ip), vehicle: Klucel (hydroxypropylcellulose) (HPC), evaluated on day 35",137 % of control
same,survivor count,"dose: 200.0 mg/kg/injection, schedule: Q01DX005 (ip), vehicle: Klucel (hydroxypropylcellulose) (HPC)",3 of 3
same,T/C,[1],"89 [5 of 6 alive], 90, 92, 96, 98, 100, 102, 104, 107, 108 (2×), 109 (2×), 110 (2×), 111, 112, 115, 116, 118 (2×), 121, 122, 122 [5 of 6 alive], 125, 126 (2×), 127, 129, 131, 134, 154 % of control"
same,survivor count,[1],5 of 6
same,T/C,"dose: 200.0 mg/kg/injection, schedule: Q04DX002 (ip), vehicle: Klucel (hydroxypropylcellulose) (HPC), evaluated on day 30","86, 90, 99 (3×), 100, 101, 102, 105, 107 (3×), 108 (2×), 109 (3×), 110 (4×), 111 (3×), 112 (3×), 115, 117, 118, 131, 134 % of control"
same,T/C,"dose: 200.0 mg/kg/injection, schedule: Q04DX002 (ip), vehicle: Klucel (hydroxypropylcellulose) (HPC), evaluated on day 35",106 % of control
same,survivor count,"dose: 200.0 mg/kg/injection, schedule: Q04DX002 (ip), vehicle: Klucel (hydroxypropylcellulose) (HPC)",6 of 6
same,T/C,"dose: 200.0 mg/kg/injection, schedule: Q04DX003 (ip), vehicle: Klucel (hydroxypropylcellulose) (HPC), evaluated on day 30","87, 93, 94, 95 (2×), 100, 101, 102 (2×), 103, 106 (2×), 107 (6×), 108, 109, 111 (2×), 112 (2×), 113, 114, 114 [5 of 6 alive], 115, 116, 117, 118 (2×), 128 % of control"
same,T/C,"dose: 200.0 mg/kg/injection, schedule: Q04DX003 (ip), vehicle: Klucel (hydroxypropylcellulose) (HPC), evaluated on day 35",98 % of control
same,survivor count,"dose: 200.0 mg/kg/injection, schedule: Q04DX003 (ip), vehicle: Klucel (hydroxypropylcellulose) (HPC)",3 of 3 (2×)
same,T/C,"dose: 400.0 mg/kg/injection, schedule: Q01DX001 (ip), vehicle: Klucel (hydroxypropylcellulose) (HPC), evaluated on day 30","89, 93 (2×), 95, 96, 96 [2 of 3 alive], 100 (2×), 101, 102 (2×), 103, 104 (2×), 106 (3×), 107, 109 (2×), 110, 111, 112, 113, 115, 117, 120, 133 % of control"
same,T/C,"dose: 400.0 mg/kg/injection, schedule: Q01DX001 (ip), vehicle: Klucel (hydroxypropylcellulose) (HPC), evaluated on day 35",102 and 110 % of control
same,survivor count,"dose: 400.0 mg/kg/injection, schedule: Q01DX001 (ip), vehicle: Klucel (hydroxypropylcellulose) (HPC)",3 of 3 and 6 of 6
same,T/C,"dose: 400.0 mg/kg/injection, schedule: Q01DX005 (ip), vehicle: Klucel (hydroxypropylcellulose) (HPC), evaluated on day 30","99, 100 (3×), 107, 108 (2×), 111, 112 (5×), 113 (2×), 115, 118, 119, 121 (3×), 122 (2×), 123, 125 (2×), 129, 130, 132, 134, 138 (2×), 149 % of control"
same,T/C,"dose: 400.0 mg/kg/injection, schedule: Q01DX005 (ip), vehicle: Klucel (hydroxypropylcellulose) (HPC), evaluated on day 35",125 % of control
same,survivor count,"dose: 400.0 mg/kg/injection, schedule: Q01DX005 (ip), vehicle: Klucel (hydroxypropylcellulose) (HPC)",3 of 3
same,T/C,[2],"88, 98, 100 (2×), 102 (2×), 103, 112 (2×), 113 (2×), 114 (2×), 115 (2×), 118, 119, 120, 122, 123, 125 (2×), 126, 127 (3×), 133, 139, 142, 160 % of control"
same,survivor count,[2],3 of 3 and 6 of 6
same,T/C,"dose: 400.0 mg/kg/injection, schedule: Q01DX010 (ip), vehicle: saline",141 % of control
same,T/C,"dose: 400.0 mg/kg/injection, schedule: Q04DX002 (ip), vehicle: Klucel (hydroxypropylcellulose) (HPC), evaluated on day 30","86, 90, 92 [2 of 3 alive], 95, 97, 102 (3×), 103 (2×), 104, 105 (4×), 107 (2×), 109 (2×), 110, 111, 112 (4×), 115, 116, 118, 121 (2×), 122 (2×), 129 % of control"
same,T/C,"dose: 400.0 mg/kg/injection, schedule: Q04DX002 (ip), vehicle: Klucel (hydroxypropylcellulose) (HPC), evaluated on day 35",106 % of control
same,T/C,"dose: 400.0 mg/kg/injection, schedule: Q04DX003 (ip), vehicle: Klucel (hydroxypropylcellulose) (HPC), evaluated on day 30","94 [5 of 6 alive], 100 (3×), 101, 102, 103 (2×), 104 (3×), 105 (3×), 107 (2×), 109 (2×), 111 (2×), 112 (2×), 113, 114 (3×), 115, 116 (2×), 119, 124, 126, 127 % of control"
same,T/C,"dose: 400.0 mg/kg/injection, schedule: Q04DX003 (ip), vehicle: Klucel (hydroxypropylcellulose) (HPC), evaluated on day 35",100 and 120 % of control
same,survivor count,"dose: 400.0 mg/kg/injection, schedule: Q04DX003 (ip), vehicle: Klucel (hydroxypropylcellulose) (HPC)",1 of 3
same,survivor count,"dose: 600.0 mg/kg/injection, schedule: Q01DX009 (ip), vehicle: Klucel (hydroxypropylcellulose) (HPC)",10 of 10
same,T/C,"dose: 800.0 mg/kg/injection, schedule: Q01DX010 (ip), vehicle: saline",136 and 141 % of control
same,T/C,"dose: 1600.0 mg/kg/injection, schedule: Q01DX010 (ip), vehicle: saline",129 % of control
